In publication PMC7981807 one finds binding data, which are given here for four substances.

The chains behind the UniProt entries cited, without tags or fusion partners. Where a name states a change or a piece, a line headed by the entry shows the natural chain unless it says otherwise. A line that says so, or that is headed by a name, gives the form on record, which may keep a tag or linker.
UniProt Q13547: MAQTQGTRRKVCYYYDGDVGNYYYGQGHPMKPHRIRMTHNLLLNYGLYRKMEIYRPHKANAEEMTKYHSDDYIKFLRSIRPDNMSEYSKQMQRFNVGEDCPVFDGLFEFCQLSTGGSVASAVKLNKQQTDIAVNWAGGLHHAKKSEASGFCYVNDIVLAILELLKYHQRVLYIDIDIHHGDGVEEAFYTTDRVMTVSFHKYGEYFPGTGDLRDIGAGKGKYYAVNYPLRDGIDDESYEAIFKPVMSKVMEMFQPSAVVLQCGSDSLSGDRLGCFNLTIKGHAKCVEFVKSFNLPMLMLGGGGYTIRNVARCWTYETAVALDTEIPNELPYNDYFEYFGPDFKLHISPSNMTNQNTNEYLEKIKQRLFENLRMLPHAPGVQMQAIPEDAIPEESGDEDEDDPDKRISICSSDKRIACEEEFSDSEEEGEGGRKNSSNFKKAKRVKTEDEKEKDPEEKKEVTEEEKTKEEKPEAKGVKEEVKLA
UniProt Q09472: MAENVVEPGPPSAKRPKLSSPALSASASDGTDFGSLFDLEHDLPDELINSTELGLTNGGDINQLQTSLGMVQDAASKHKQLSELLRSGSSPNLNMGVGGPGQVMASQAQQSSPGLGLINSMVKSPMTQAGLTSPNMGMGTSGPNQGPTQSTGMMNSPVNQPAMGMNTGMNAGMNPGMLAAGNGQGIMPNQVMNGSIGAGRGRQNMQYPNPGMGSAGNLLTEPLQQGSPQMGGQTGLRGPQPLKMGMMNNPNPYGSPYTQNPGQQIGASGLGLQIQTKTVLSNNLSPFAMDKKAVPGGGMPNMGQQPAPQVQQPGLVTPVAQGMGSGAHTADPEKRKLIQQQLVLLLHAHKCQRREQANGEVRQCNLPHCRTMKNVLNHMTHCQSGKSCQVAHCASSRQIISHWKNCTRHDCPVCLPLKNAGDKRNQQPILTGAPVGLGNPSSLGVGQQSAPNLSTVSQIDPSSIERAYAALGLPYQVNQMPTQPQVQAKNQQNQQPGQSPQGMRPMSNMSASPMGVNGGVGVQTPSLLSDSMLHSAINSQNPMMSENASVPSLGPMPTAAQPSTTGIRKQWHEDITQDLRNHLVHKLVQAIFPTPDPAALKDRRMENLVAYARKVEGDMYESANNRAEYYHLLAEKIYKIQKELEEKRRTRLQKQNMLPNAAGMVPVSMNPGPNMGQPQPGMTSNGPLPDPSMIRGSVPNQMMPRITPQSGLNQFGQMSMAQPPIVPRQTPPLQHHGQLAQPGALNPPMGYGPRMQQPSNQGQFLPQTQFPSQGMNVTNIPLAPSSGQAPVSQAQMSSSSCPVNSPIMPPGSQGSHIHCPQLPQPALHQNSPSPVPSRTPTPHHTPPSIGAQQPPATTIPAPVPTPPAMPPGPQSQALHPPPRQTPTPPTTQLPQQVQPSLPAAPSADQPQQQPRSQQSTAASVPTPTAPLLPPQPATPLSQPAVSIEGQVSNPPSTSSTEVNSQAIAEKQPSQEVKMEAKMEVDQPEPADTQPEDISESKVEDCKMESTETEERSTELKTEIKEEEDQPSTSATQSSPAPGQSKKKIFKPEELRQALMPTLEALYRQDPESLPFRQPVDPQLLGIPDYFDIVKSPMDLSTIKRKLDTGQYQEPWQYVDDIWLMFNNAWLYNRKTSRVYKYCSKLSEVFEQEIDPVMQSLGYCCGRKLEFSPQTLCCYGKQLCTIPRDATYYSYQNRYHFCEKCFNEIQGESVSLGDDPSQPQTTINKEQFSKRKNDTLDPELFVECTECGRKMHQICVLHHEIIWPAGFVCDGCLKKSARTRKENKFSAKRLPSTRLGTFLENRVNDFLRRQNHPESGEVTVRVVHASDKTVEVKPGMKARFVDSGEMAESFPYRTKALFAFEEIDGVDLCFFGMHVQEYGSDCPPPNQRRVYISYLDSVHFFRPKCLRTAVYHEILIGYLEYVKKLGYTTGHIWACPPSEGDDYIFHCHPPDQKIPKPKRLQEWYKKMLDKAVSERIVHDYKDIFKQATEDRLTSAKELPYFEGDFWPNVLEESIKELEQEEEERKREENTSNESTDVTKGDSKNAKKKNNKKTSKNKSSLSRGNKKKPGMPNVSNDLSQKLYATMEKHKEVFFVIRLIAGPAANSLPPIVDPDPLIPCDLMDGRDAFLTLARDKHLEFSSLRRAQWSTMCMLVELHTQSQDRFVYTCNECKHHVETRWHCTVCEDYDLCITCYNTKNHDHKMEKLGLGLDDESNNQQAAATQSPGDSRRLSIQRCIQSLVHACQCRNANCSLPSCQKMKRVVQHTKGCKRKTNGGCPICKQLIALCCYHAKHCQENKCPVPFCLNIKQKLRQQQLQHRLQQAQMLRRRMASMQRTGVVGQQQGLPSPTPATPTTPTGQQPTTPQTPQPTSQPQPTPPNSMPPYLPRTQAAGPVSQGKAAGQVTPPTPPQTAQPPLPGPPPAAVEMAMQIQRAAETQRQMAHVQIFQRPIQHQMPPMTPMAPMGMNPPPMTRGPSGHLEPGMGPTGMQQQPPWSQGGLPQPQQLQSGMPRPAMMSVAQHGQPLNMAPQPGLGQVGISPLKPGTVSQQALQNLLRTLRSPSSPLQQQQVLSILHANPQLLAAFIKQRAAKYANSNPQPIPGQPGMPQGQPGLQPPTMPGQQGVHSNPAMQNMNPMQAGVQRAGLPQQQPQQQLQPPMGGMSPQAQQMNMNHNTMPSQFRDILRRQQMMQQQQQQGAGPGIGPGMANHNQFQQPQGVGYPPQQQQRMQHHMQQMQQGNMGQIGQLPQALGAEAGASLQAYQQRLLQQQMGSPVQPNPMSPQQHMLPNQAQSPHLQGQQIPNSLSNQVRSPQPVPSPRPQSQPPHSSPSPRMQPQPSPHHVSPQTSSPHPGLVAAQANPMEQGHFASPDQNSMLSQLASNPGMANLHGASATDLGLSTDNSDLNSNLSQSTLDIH
UniProt Q92793: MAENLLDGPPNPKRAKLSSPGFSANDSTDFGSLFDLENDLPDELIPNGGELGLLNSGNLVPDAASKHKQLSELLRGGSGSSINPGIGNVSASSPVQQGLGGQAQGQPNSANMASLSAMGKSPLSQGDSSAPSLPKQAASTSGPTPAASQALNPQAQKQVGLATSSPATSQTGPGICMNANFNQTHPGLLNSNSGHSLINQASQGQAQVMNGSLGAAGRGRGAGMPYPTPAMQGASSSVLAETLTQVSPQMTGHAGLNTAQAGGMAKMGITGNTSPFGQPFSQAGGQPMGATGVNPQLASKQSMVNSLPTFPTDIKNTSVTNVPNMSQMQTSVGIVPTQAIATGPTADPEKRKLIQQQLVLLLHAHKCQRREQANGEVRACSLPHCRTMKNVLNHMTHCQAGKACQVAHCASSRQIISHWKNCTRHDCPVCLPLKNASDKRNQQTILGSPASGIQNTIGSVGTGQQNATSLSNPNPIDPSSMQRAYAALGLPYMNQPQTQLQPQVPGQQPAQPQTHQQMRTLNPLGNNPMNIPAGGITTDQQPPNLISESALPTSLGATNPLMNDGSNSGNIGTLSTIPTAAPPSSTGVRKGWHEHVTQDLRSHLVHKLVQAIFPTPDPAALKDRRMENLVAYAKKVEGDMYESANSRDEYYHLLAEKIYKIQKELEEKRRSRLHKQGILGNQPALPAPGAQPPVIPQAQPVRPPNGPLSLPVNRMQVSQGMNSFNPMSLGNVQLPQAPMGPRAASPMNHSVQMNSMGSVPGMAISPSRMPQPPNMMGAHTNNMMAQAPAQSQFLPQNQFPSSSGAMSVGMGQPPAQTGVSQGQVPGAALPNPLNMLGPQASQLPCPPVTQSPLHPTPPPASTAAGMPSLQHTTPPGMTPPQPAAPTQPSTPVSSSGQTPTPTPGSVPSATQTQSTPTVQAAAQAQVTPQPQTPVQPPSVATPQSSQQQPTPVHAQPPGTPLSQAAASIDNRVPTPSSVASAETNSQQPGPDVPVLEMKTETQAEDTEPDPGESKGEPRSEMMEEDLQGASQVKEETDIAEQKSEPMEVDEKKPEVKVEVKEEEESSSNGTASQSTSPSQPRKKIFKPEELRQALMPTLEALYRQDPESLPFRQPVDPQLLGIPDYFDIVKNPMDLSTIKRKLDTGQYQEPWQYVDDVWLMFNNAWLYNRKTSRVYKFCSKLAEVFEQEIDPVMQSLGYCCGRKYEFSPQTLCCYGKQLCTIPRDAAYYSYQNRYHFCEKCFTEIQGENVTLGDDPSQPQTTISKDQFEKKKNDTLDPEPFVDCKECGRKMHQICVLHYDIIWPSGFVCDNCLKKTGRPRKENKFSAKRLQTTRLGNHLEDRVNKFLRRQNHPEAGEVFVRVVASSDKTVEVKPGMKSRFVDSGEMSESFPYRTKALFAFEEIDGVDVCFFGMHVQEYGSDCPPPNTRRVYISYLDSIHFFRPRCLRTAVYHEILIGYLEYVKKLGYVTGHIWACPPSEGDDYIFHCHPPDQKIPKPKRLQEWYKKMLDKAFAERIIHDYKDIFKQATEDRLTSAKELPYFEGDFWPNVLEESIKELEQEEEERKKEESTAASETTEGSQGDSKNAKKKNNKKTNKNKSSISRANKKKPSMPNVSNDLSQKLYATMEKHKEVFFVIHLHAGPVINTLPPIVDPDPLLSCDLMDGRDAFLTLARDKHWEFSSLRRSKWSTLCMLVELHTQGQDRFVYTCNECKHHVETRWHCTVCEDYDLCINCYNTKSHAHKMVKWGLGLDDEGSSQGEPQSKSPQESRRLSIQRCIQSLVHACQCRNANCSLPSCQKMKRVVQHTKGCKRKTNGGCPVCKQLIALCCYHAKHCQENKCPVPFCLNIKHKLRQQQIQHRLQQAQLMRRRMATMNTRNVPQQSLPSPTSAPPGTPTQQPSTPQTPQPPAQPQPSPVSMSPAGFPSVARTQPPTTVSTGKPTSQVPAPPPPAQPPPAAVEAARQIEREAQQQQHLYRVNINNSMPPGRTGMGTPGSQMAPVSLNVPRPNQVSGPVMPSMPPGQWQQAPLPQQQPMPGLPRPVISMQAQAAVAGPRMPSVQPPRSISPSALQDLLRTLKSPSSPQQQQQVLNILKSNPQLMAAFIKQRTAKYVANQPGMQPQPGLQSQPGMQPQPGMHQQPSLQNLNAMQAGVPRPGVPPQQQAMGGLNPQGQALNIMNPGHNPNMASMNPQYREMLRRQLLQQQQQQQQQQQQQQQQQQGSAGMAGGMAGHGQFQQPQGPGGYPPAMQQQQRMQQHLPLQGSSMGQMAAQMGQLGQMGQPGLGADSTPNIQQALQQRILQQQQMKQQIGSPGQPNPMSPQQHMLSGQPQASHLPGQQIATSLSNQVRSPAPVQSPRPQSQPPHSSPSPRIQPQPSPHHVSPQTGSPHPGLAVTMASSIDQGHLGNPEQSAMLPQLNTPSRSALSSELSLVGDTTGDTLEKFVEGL
UniProt Q01196: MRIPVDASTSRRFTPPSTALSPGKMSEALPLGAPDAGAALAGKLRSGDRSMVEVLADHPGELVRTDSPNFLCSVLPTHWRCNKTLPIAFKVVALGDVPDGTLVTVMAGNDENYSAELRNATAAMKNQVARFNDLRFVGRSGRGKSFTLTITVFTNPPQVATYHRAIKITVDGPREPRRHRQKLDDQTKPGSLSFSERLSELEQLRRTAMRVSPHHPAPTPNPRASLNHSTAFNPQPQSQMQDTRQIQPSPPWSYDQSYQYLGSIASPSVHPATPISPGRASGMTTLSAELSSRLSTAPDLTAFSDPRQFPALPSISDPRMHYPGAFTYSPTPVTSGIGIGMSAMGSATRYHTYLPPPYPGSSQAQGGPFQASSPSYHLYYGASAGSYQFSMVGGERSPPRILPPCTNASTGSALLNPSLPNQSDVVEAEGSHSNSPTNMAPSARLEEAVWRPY
RUNX1^Δ50−175 (Q01196, form named): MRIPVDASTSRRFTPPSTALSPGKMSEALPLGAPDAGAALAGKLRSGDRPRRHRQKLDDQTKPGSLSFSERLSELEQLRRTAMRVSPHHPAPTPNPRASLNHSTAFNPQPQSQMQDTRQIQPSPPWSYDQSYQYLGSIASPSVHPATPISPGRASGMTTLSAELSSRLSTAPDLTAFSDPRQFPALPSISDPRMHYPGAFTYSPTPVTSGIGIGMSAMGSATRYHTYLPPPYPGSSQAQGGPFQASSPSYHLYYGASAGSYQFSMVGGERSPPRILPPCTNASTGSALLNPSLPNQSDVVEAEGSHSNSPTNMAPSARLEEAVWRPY
RUNX1^Δ244−322 (Q01196, form named): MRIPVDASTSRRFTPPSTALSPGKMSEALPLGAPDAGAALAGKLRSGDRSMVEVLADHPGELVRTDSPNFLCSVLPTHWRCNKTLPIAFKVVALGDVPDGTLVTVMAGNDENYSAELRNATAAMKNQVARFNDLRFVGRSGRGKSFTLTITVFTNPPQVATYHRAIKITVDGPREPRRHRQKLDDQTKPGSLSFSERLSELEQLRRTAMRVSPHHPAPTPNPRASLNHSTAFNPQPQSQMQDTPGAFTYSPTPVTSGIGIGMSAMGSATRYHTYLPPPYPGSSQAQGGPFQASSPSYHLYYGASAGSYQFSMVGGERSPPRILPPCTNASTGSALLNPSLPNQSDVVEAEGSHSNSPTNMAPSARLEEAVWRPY

No constants are given. Whether binding was seen depends on the method and setting. Binding seen in cells or lysates may run through a third protein. Some binding calls cover weakened binding; strength is not graded here. For some assays here: Tags and fused reporters may be left off the sequences shown.

The target in assay [1] is HDAC1, endogenous (human (endogenous in REH and Nalm6)) (UniProt Q13547). The experiment in a line: proximity ligation; Duolink PLA on endogenous proteins, dots per nucleus, in REH cells, Nalm6 cells and BCP-ALL patients' cells; cut-off two S.D. over the negative control, Fisher's exact test.
Assay [2] has as its target T1, SIN3A, endogenous (human (endogenous in REH and Nalm6)) (UniProt Q96ST3).
T1 sequence: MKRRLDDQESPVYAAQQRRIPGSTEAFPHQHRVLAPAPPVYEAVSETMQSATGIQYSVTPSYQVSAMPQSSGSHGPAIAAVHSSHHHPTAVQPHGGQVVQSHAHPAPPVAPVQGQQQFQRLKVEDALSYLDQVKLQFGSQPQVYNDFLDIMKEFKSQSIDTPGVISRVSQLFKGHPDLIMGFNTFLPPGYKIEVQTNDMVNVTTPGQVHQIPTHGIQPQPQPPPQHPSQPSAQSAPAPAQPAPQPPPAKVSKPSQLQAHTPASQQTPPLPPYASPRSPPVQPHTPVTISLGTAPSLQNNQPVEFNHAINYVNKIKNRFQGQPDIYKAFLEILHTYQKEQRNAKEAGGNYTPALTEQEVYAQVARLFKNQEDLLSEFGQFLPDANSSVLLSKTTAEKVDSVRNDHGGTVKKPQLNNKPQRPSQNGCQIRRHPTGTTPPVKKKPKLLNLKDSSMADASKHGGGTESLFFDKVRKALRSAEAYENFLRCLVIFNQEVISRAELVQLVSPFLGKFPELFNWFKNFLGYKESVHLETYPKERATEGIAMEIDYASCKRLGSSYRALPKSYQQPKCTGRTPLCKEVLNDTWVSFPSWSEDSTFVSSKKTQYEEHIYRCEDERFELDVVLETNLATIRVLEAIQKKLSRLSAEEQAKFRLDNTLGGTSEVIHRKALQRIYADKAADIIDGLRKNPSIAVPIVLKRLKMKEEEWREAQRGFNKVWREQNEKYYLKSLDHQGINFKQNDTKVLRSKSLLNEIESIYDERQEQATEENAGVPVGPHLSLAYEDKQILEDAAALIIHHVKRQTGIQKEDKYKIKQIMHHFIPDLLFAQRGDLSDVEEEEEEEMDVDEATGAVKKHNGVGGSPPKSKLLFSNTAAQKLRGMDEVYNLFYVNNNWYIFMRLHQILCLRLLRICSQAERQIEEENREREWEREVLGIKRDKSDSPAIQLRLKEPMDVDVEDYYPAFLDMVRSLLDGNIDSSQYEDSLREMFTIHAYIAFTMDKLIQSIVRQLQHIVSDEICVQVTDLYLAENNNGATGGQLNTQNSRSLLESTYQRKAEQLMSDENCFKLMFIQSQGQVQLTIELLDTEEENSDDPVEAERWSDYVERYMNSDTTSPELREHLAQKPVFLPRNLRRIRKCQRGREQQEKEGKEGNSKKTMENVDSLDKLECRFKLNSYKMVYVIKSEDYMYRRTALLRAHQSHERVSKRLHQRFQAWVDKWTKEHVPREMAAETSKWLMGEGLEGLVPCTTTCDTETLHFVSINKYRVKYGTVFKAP
The description is as above.

In assay [3] the target is EP300 (P300), endogenous (human (endogenous in REH and Nalm6)) (UniProt Q09472). The description is as above.
Assay [4] addresses CREBPP (CBP), endogenous (human (endogenous in REH and Nalm6)) (UniProt Q92793). The description is as above.
Assay [5] deals with T2, CBFA2T3 (Core-Binding Factor Runt Domain Alpha Subunit 2 Translocated To 3), endogenous (human (endogenous in REH, Nalm6 and BCP-ALL patients' cells)) (UniProt O75081).
T2 sequence: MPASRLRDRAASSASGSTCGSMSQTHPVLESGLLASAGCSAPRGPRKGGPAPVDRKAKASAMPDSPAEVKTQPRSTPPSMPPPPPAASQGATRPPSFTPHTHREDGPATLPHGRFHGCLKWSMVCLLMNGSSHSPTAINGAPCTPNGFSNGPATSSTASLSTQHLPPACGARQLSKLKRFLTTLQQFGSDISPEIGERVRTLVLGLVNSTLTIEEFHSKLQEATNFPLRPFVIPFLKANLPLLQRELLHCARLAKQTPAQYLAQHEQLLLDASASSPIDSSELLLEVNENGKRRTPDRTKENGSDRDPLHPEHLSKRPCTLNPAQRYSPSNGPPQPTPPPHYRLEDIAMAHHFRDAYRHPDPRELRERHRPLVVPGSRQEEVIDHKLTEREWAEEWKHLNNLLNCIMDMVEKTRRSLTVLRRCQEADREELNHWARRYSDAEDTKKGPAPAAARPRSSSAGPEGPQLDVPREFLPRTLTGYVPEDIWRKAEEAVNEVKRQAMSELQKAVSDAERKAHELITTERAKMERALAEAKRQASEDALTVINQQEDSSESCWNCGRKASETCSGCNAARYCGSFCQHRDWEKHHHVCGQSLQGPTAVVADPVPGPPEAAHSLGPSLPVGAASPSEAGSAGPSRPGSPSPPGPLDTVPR
Described as above.

The target of assay [6] is T2, CBFA2T3 (Core-Binding Factor Runt Domain Alpha Subunit 2 Translocated To 3), endogenous (human (endogenous in REH, Nalm6 and BCP-ALL patients' cells)). As to the kind of experiment: proximity ligation; PLA of endogenous RUNX1 and CBFA2T3 in REH cells in presence or absence of CBFA2T3^NHR2-Myc.
For assay [7], the target named is T3, CBFA2T3-Flag (human) (UniProt O75081).
T3 sequence: T2 sequence
As to the kind of experiment: proximity ligation; PLA of exogenous RUNX1 and CBFA2T3 in HEK293 cells in presence or absence of CBFA2T3^NHR2-Myc.

The target of assay [8] is T3, CBFA2T3-Flag (human). As to the kind of experiment: co-IP; anti-Flag magnetic beads (M2), overnight at 4 °C, washed with TBS; HEK293 cells expressing tagged full-length or truncated proteins; blots with RUNX1, Myc and CBFA2T3 antibodies.
The target of assay [9] is T3, CBFA2T3-Flag (human). The experiment in a line: co-IP; anti-Flag antibody in HEK293 cells expressing RUNX1-Halotag, CBFA2T3-Flag or CBFA2T3^NHR2-Myc; competition.

Take “RUNX1 (Runt Related Transcription Factor 1), endogenous (from UniProt Q01196 1-453)”: the binding entry in assay [1], in assay [2], in assay [3], in [4], in assay [5] and in [6] was “binds” throughout.
Take “RUNX1-Halotag (from UniProt Q01196 1-453)”: the binding entry in the assay with CBFA2T3-Flag (human) [7], in the assay with CBFA2T3-Flag (human) [8] and with CBFA2T3-Flag (human) [9] was “binds” in each case.
Turning to “RUNX1^Δ50−175 (from UniProt Q01196 1-453)”, the binding entry in the assay with CBFA2T3-Flag (human) [8] is reported as “binds”.
Turning to “RUNX1^Δ244−322 (from UniProt Q01196 1-453)”, the binding entry with CBFA2T3-Flag (human) [8] is given as “binds weakly”.
